Measurements from the supplement of paper PMC12542422.
Counter-ions that a name gives are not always drawn. ± gives the standard deviation of the averaged measurements. The list shows a part of the results. These are raw signals, not scaled to a control.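 Across three biological replicates, HeLa cells were imaged for ribosome assembly using ENP1 staining (export block present or absent) or inducible tagged ribosomal protein reporters. Machine learning classified each cell's signal localization relative to DMSO controls. Hits exceeded the DMSO false-positive mean by five standard deviations and were then visually confirmed.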

Each compound was assayed on HeLa K (ENP1 immunofluorescence, +LMB) (assay: fraction of cells with nucleolar or nucleolar/nucleoplasmic ENP1 signal (MainHitrate); higher = more cells with nucleolar/nuclear readout signal (for ENP1 -LMB: less RNAPI inhibition; for +LMB ENP1 and RP reporters: stronger nuclear/nucleolar retention, i.e. ribosome biogenesis defect)). Conditions: concentration: 1 µM; treatment time: 6 h; ENP1 +LMB; leptomycin B: 20 nM, last 1.5 h.

SMILES | fraction
CCCC(CCC)C(=O)O [Valproic acid sodium salt (Sodium valproate)] | 0.0948 ± 0.065
Cc1cc(C(C)(C)C)c(O)c(C)c1CC1=NCCN1 [Oxymetazoline hydrochloride] | 0.135 ± 0.18
Cc1ccc(S(=O)(=O)NC(=O)NN2CC3CCCC3C2)cc1 (centres undefined) [Gliclazide (Diamicron)] | 0.148 ± 0.21
CCCCC(=O)N(Cc1ccc(-c2ccccc2-c2nnn[nH]2)cc1)[C@H](C(=O)O)C(C)C [Valsartan (Diovan)] | 0.0818 ± 0.12
Fc1ccc([C@@H]2CCNC[C@H]2COc2ccc3c(c2)OCO3)cc1 [Paroxetine HCl] | 0.0695 ± 0.091
CN/C(=N\CCSCc1nc[nH]c1C)NC#N [Cimetidine (Tagamet)] | 0.096 ± 0.13
CC(C)OC(=O)C(C(=O)OC(C)C)=C1SC=CS1 [Malotilate] | 0.0766 ± 0.068
O=C1OC(CN2CCOCC2)CN1/N=C/c1ccc([N+](=O)[O-])o1 (centres undefined) [Furaltadone HCl] | 0.0716 ± 0.1
Cc1cnc(C(=O)NCCc2ccc(S(=O)(=O)NC(=O)NC3CCCCC3)cc2)cn1 [Glipizide (Glucotrol)] | 0.121 ± 0.14
CC(=O)[C@H]1CC[C@H]2[C@@H]3CC=C4C[C@@H](O)CC[C@]4(C)[C@H]3CC[C@]12C [Pregnenolone] | 0.153 ± 0.23
Nc1ccn([C@@H]2CS[C@H](CO)O2)c(=O)n1 [Lamivudine (Epivir)] | 0.0686 ± 0.056
CC(N)C12CC3CC(CC(C3)C1)C2 (centres undefined) [Rimantadine (Flumadine)] | 0.071 ± 0.1
CCC[C@@H]1C[C@@H](C(=O)N[C@@H]([C@H]2O[C@H](SC)[C@H](O)[C@@H](O)[C@H]2O)[C@@H](C)O)N(C)C1 [Lincomycin hydrochloride (Lincocin)] | 0.1 ± 0.14
CCCCC[C@H](O)/C=C/[C@H]1[C@H](O)CC(=O)[C@@H]1CCCCCCC(=O)O [Alprostadil (Caverject)] | 0.0796 ± 0.081
Cc1cc2c(cc1S(N)(=O)=O)S(=O)(=O)CCC2 [Meticrane] | 0.233 ± 0.31
O=C(O)c1cccnc1Nc1cccc(C(F)(F)F)c1 [Niflumic acid] | 0.0498 ± 0.063
CNCCCC12CCC(c3ccccc31)c1ccccc12 [Maprotiline hydrochloride] | 0.113 ± 0.15
CCc1cccc2c3c([nH]c12)C(CC)(CC(=O)O)OCC3 (centres undefined) [Etodolac (Lodine)] | 0.072 ± 0.052
CCOC(=O)c1c(CSc2ccccc2)n(C)c2cc(Br)c(O)c(CN(C)C)c12 [Arbidol HCl] | 0.103 ± 0.13
CC(C)NCC(O)c1cc(O)cc(O)c1 (centres undefined) [Metaproterenol Sulfate] | 0.125 ± 0.16
CCC(=O)O[C@]1(C(=O)SCF)[C@H](C)C[C@H]2[C@@H]3C[C@H](F)C4=CC(=O)C=C[C@]4(C)[C@@]3(F)[C@@H](O)C[C@@]21C [Fluticasone propionate (Flonase, Veramyst)] | 0.0674 ± 0.093
CNCCC(Oc1ccc(C(F)(F)F)cc1)c1ccccc1 (centres undefined) [Fluoxetine  HCl] | 0.0832 ± 0.071
Cc1ccc(C)c(OCCCC(C)(C)C(=O)O)c1 [Gemfibrozil (Lopid)] | 0.0965 ± 0.11
CCN(CC)CCOC(=O)C(c1ccccc1)c1ccccc1 [Adiphenine HCl] | 0.0636 ± 0.086
CCCCOc1ccc(C(=O)CCN2CCCCC2)cc1 [Dyclonine HCl] | 0.0922 ± 0.14
C[C@H](Cn1cnc2c(N)ncnc21)OCP(=O)(O)O [Tenofovir (Viread)] | 0.0927 ± 0.078
CC(=O)[C@H]1CC[C@H]2[C@@H]3C=CC4=CC(=O)CC[C@@]4(C)[C@@H]3CC[C@]12C [Dydrogesterone] | 0.152 ± 0.24
COc1ccc2[nH]cc(CCNC(C)=O)c2c1 [Melatonin] | 0.099 ± 0.1
C[C@H]1C[C@@H]2[C@H]([C@@H](O)C[C@@]3(C)[C@H]2CC[C@]3(O)C(=O)CO)[C@@]2(C)C=CC(=O)C=C12 [Methylprednisolone] | 0.0815 ± 0.078

What follows are compounds tested on HeLa K (ENP1 immunofluorescence, no LMB) in the same assay as above. Conditions: concentration: 1 µM; treatment time: 6 h; ENP1 -LMB; leptomycin B: none.

SMILES | fraction
NCCc1ccc(O)c(O)c1 [Dopamine hydrochloride (Inotropin)] | 0.9948 ± 0.009
O=C1[C@@H]2[C@H]3CC[C@H](C3)[C@@H]2C(=O)N1C[C@@H]1CCCC[C@H]1CN1CCN(c2nsc3ccccc23)CC1 [Lurasidone HCl] | 0.984 ± 0.027
Nc1nnc(-c2cccc(Cl)c2Cl)c(N)n1 [Lamotrigine] | 0.98 ± 0.035
CCOc1ccc2nc3cc(N)ccc3c(N)c2c1 [Ethacridine lactate monohydrate] | 0.992 ± 0.014
NC(=O)OCC(COC(N)=O)c1ccccc1 [Felbamate] | 0.9981 ± 0.0032
CC#CCn1c(N2CCC[C@@H](N)C2)nc2c1c(=O)n(Cc1nc(C)c3ccccc3n1)c(=O)n2C [Linagliptin (BI-1356)] | 0.983 ± 0.029
CCOc1cc(CC(=O)N[C@@H](CC(C)C)c2ccccc2N2CCCCC2)ccc1C(=O)O [Repaglinide] | 0.9991 ± 0.0015
CC=CC1=C(C(=O)O)N2C(=O)[C@@H](NC(=O)[C@H](N)c3ccc(O)cc3)[C@H]2SC1 [Cefprozil hydrate (Cefzil)] | 0.992 ± 0.014
Nc1ncnc2c1ncn2[C@@H]1O[C@H](COP(=O)(O)OP(=O)(O)OP(=O)(O)O)[C@@H](O)[C@H]1O [ATP (Adenosine-Triphosphate)] | 0.9961 ± 0.0067
CCCCCCCCCCCCCCCC[N+](C)(C)CCN(Cc1ccc(OC)cc1)c1ncccn1 [Thonzonium Bromide] | 0.952 ± 0.083
Cc1onc(-c2ccccc2Cl)c1C(=O)N[C@@H]1C(=O)N2[C@@H]1SC(C)(C)[C@@H]2C(=O)O [Cloxacillin sodium (Cloxacap)] | 0.99 ± 0.018
CCCC(CCC)C(=O)O [Valproic acid sodium salt (Sodium valproate)] | 0.9976 ± 0.0041
Cc1cc(C(C)(C)C)c(O)c(C)c1CC1=NCCN1 [Oxymetazoline hydrochloride] | 0.994 ± 0.01
Cc1ccc(S(=O)(=O)NC(=O)NN2CC3CCCC3C2)cc1 (centres undefined) [Gliclazide (Diamicron)] | 0.992 ± 0.013
CCCCC(=O)N(Cc1ccc(-c2ccccc2-c2nnn[nH]2)cc1)[C@H](C(=O)O)C(C)C [Valsartan (Diovan)] | 0.989 ± 0.019
Fc1ccc([C@@H]2CCNC[C@H]2COc2ccc3c(c2)OCO3)cc1 [Paroxetine HCl] | 0.992 ± 0.015
CN/C(=N\CCSCc1nc[nH]c1C)NC#N [Cimetidine (Tagamet)] | 0.992 ± 0.014
CC(C)OC(=O)C(C(=O)OC(C)C)=C1SC=CS1 [Malotilate] | 0.9982 ± 0.0031
O=C1OC(CN2CCOCC2)CN1/N=C/c1ccc([N+](=O)[O-])o1 (centres undefined) [Furaltadone HCl] | 0.994 ± 0.011
Cc1cnc(C(=O)NCCc2ccc(S(=O)(=O)NC(=O)NC3CCCCC3)cc2)cn1 [Glipizide (Glucotrol)] | 0.998 ± 0.0034

SMILES | fraction
CC(=O)[C@H]1CC[C@H]2[C@@H]3CC=C4C[C@@H](O)CC[C@]4(C)[C@H]3CC[C@]12C [Pregnenolone] | 0.993 ± 0.012
Nc1ccn([C@@H]2CS[C@H](CO)O2)c(=O)n1 [Lamivudine (Epivir)] | 0.9983 ± 0.0029
CC(N)C12CC3CC(CC(C3)C1)C2 (centres undefined) [Rimantadine (Flumadine)] | 0.9943 ± 0.0099
CCC[C@@H]1C[C@@H](C(=O)N[C@@H]([C@H]2O[C@H](SC)[C@H](O)[C@@H](O)[C@H]2O)[C@@H](C)O)N(C)C1 [Lincomycin hydrochloride (Lincocin)] | 0.998 ± 0.0034
CCCCC[C@H](O)/C=C/[C@H]1[C@H](O)CC(=O)[C@@H]1CCCCCCC(=O)O [Alprostadil (Caverject)] | 0.9972 ± 0.0049
Cc1cc2c(cc1S(N)(=O)=O)S(=O)(=O)CCC2 [Meticrane] | 0.9956 ± 0.0076
O=C(O)c1cccnc1Nc1cccc(C(F)(F)F)c1 [Niflumic acid] | 0.977 ± 0.041
CNCCCC12CCC(c3ccccc31)c1ccccc12 [Maprotiline hydrochloride] | 0.9953 ± 0.0081
CCc1cccc2c3c([nH]c12)C(CC)(CC(=O)O)OCC3 (centres undefined) [Etodolac (Lodine)] | 0.997 ± 0.0051
CCOC(=O)c1c(CSc2ccccc2)n(C)c2cc(Br)c(O)c(CN(C)C)c12 [Arbidol HCl] | 0.989 ± 0.018
CC(C)NCC(O)c1cc(O)cc(O)c1 (centres undefined) [Metaproterenol Sulfate] | 0.9946 ± 0.0094
CCC(=O)O[C@]1(C(=O)SCF)[C@H](C)C[C@H]2[C@@H]3C[C@H](F)C4=CC(=O)C=C[C@]4(C)[C@@]3(F)[C@@H](O)C[C@@]21C [Fluticasone propionate (Flonase, Veramyst)] | 0.9956 ± 0.0076
CNCCC(Oc1ccc(C(F)(F)F)cc1)c1ccccc1 (centres undefined) [Fluoxetine  HCl] | 0.9966 ± 0.0059
Cc1ccc(C)c(OCCCC(C)(C)C(=O)O)c1 [Gemfibrozil (Lopid)] | 0.9982 ± 0.0031
CCN(CC)CCOC(=O)C(c1ccccc1)c1ccccc1 [Adiphenine HCl] | 0.9956 ± 0.0077
CCCCOc1ccc(C(=O)CCN2CCCCC2)cc1 [Dyclonine HCl] | 0.9944 ± 0.0097
C[C@H](Cn1cnc2c(N)ncnc21)OCP(=O)(O)O [Tenofovir (Viread)] | 0.9983 ± 0.0029
CC(=O)[C@H]1CC[C@H]2[C@@H]3C=CC4=CC(=O)CC[C@@]4(C)[C@@H]3CC[C@]12C [Dydrogesterone] | 0.979 ± 0.037
COc1ccc2[nH]cc(CCNC(C)=O)c2c1 [Melatonin] | 0.9985 ± 0.0026
C[C@H]1C[C@@H]2[C@H]([C@@H](O)C[C@@]3(C)[C@H]2CC[C@]3(O)C(=O)CO)[C@@]2(C)C=CC(=O)C=C12 [Methylprednisolone] | 0.9979 ± 0.0036
